Data reported in the supplement of paper PMC10849652.
This is one part of the list. Residues, ends and D or L forms follow the SMILES beside them. *: point of attachment. Cbz = O=C(OCc1ccccc1)*

The chains behind the UniProt entries cited, without tags or fusion partners. Where a name states a change or a piece, a line headed by the entry shows the natural chain unless it says otherwise.
UniProt Q9Y265, whole entry, looked up: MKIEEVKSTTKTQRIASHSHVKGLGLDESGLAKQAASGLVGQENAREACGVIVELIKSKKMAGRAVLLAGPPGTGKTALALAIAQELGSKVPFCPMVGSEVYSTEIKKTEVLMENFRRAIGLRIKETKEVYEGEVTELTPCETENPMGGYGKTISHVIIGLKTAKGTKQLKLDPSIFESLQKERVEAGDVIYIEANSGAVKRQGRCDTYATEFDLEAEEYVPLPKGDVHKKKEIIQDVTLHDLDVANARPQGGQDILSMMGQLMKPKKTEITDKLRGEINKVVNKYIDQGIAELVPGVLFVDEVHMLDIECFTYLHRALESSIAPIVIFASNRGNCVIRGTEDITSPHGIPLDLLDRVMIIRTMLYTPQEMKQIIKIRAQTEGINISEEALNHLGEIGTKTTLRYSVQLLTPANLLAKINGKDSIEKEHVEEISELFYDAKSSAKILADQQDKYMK
UniProt P55735: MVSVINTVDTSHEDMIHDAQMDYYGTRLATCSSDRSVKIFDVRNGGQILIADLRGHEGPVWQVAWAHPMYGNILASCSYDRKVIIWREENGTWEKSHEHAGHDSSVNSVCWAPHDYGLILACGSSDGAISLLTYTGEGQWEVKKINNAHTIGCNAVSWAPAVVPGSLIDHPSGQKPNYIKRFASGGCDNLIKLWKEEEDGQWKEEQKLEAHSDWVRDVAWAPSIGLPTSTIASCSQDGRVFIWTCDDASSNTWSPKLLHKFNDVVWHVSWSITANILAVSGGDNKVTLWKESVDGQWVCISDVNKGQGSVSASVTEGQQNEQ
UniProt Q9Y6U3: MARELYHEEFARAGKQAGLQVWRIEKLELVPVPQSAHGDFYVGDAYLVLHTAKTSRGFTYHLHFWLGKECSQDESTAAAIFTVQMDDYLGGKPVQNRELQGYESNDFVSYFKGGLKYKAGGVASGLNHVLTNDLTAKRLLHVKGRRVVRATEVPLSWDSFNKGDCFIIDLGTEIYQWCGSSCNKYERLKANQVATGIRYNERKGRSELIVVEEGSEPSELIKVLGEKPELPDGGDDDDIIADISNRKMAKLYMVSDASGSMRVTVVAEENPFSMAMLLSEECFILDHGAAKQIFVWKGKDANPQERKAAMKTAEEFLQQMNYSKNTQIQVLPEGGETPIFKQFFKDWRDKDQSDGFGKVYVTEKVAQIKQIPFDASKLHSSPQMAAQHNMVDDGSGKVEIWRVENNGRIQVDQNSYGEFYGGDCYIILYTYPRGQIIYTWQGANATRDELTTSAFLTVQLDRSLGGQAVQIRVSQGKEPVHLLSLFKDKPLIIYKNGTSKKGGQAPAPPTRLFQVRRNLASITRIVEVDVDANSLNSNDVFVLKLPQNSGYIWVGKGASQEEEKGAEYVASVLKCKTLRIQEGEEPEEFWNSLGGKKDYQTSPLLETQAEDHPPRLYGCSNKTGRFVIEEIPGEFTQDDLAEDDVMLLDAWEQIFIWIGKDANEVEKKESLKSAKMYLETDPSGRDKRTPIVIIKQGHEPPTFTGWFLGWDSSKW
UniProt Q9BRK5: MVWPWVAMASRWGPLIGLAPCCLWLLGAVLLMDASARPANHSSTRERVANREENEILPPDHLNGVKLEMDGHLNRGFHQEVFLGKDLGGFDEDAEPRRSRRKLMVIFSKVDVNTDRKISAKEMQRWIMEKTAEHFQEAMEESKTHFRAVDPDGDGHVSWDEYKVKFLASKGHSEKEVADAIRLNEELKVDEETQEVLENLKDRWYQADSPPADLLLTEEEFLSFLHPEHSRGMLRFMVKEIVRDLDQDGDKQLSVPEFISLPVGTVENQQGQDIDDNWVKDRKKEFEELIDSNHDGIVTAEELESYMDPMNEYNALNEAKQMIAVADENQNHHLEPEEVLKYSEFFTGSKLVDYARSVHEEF
UniProt O75880: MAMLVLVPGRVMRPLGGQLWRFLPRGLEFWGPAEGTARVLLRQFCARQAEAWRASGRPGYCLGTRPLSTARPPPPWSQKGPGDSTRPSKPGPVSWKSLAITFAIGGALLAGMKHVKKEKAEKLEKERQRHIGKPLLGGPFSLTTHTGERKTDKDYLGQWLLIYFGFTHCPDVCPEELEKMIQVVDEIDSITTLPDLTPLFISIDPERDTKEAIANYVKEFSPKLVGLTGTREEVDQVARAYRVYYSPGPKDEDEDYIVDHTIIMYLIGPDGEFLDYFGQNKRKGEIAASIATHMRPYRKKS
UniProt Q15404: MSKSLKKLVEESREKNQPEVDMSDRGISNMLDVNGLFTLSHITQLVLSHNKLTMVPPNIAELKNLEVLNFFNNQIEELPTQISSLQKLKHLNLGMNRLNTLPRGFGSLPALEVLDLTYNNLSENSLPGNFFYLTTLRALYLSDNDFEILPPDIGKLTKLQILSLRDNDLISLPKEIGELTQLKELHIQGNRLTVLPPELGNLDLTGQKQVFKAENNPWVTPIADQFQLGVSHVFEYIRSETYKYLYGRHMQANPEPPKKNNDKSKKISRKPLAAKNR
UniProt Q9Y3A5: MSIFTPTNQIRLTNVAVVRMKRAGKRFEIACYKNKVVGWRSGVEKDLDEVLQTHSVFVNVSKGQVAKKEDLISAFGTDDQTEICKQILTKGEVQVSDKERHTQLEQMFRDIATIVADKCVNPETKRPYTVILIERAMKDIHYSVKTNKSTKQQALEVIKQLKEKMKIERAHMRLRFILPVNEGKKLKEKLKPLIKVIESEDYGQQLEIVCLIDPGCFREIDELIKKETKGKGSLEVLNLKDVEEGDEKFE
UniProt Q9UBE0: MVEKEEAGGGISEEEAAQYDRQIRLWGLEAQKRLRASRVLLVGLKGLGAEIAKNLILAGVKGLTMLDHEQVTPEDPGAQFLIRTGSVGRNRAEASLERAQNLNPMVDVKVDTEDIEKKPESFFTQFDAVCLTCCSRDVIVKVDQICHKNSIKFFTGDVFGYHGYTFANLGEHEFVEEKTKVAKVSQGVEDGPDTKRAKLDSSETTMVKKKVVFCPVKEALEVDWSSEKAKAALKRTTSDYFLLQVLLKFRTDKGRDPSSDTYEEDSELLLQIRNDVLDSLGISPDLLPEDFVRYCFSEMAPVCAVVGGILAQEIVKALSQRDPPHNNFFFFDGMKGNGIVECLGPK
UniProt O75298: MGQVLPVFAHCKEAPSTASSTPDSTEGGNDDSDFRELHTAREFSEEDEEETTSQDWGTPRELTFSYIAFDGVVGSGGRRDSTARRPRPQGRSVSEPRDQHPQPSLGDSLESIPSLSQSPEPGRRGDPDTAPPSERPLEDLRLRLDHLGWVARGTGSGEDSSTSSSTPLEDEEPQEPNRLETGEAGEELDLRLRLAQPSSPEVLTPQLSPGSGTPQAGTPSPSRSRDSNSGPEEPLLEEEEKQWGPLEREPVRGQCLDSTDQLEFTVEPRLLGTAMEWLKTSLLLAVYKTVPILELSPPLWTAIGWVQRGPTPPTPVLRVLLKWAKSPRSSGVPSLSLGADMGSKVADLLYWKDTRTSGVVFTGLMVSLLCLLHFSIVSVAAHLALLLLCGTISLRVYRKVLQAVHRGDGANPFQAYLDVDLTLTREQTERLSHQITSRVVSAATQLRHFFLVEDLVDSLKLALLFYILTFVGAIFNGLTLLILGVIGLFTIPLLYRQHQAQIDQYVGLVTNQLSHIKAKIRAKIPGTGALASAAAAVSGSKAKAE
UniProt P31949: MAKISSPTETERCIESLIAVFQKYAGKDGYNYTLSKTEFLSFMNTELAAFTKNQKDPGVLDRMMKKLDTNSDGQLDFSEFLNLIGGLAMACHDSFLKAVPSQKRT
UniProt O95248: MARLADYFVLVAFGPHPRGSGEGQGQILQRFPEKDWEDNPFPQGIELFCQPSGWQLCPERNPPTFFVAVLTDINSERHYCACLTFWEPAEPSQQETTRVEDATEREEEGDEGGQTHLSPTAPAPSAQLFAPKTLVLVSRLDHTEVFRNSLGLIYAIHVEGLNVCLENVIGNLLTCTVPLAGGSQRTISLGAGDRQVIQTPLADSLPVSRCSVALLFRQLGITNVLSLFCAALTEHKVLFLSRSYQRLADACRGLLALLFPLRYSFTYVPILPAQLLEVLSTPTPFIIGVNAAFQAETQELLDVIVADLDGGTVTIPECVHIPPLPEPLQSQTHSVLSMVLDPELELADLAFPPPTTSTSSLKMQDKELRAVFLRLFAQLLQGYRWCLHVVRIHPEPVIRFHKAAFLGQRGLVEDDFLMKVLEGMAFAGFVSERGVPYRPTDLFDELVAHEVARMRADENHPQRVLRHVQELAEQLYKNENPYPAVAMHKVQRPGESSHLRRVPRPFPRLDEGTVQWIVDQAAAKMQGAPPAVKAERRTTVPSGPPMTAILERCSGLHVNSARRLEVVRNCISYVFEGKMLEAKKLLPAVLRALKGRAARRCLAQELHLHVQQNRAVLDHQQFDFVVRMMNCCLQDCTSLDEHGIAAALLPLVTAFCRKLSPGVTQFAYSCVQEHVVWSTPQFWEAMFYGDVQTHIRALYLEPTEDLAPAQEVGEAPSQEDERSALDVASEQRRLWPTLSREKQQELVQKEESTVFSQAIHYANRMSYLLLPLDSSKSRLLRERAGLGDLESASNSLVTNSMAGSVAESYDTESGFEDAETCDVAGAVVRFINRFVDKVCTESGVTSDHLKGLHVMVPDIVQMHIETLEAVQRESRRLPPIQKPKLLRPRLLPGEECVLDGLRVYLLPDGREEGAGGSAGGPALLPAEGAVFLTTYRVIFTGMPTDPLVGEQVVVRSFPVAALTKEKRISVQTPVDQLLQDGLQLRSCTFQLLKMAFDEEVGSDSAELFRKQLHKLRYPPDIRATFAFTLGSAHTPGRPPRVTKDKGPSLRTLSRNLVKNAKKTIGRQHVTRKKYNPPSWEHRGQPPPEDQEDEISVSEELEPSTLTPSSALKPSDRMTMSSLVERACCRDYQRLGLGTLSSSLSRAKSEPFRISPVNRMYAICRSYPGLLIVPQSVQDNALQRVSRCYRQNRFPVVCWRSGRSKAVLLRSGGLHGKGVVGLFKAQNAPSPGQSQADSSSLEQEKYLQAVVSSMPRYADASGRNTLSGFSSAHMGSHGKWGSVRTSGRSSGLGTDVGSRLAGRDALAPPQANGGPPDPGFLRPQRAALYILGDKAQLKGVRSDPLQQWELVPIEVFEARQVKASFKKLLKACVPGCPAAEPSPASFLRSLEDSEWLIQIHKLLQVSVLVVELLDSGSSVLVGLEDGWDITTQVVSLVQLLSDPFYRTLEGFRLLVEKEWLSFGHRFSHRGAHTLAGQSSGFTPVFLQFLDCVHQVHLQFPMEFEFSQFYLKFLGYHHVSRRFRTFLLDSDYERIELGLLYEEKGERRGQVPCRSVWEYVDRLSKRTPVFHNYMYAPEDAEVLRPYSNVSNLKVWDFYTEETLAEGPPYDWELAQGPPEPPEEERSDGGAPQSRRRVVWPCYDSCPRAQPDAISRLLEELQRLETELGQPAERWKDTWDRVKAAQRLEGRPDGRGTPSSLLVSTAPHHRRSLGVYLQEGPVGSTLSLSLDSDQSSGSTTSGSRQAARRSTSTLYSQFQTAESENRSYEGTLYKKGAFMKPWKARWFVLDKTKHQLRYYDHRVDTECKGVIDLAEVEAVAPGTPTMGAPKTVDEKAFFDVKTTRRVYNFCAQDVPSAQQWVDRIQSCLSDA
UniProt Q8WU76: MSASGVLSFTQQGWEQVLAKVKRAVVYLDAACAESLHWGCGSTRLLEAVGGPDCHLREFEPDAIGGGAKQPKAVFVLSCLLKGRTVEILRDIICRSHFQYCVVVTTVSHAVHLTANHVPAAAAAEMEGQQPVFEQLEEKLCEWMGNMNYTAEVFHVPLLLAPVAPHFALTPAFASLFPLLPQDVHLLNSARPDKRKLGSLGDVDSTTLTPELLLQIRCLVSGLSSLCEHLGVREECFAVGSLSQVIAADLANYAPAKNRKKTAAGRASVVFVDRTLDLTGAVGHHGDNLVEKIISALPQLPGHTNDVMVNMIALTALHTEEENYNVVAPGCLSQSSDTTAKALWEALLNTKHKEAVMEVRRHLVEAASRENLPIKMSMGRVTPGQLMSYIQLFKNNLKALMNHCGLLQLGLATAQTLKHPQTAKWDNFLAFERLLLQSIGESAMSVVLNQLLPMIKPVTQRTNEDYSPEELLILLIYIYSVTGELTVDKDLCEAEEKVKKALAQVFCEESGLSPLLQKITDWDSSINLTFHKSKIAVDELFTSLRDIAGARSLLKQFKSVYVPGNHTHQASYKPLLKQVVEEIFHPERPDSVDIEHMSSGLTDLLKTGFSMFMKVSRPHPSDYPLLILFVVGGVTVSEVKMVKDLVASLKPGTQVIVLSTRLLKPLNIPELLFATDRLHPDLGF

Legend:
Assay in all cases: log2 fold change, soluble protein after heating vs DMSO (PISA); higher = thermal stabilisation; K562 cells, 10 uM, 30 min; active = over 0.2 and 3.5 SD of the protein, either way, in both replicates (recomputed)
erlotinib = compound: C#Cc1cccc(Nc2ncnc3cc(OCCOC)c(OCCOC)cc23)c1 [erlotinib]
Procedure, shortened: (§1)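 K562 cells at 2×10^6 cells/mL were exposed to 10 μM compound for 30 min, then aliquots were heated for 3 min across 48°C-58°C, pooled, and extracted in PBS containing 0.5% NP-40 at 4°C. The supernatant after 21,000xg for 90 min was taken as soluble protein and measured by TMTpro 16plex LC-MS/MS with channel sums equalised. Thermal stability is reported relative to control samples, with values from duplicates. Fold changes are given on a log2 scale.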

[1] = compound: C/C(=N\NC(=O)C1=CC(=CC=C1)S(=O)(=O)N2CCOCC2)/C3=C(C=CC(=C3)Cl)O
Procedure, shortened: as §1

[2] = compound: C1=CC(=C(C=C1Cl)C2=NC3=NC=CN=C3C(=N2)NC4=CC=NC=C4)F
Procedure, shortened: as §1

[3] = compound: C1=CC(=CC=C1C2=NC3=C(N2)C=C(C=C3)C(=O)N)OC4=CC=C(C=C4)Cl
Procedure, shortened: as §1

[4] = compound: C1=CC2=C(C=CC(=C2)/C=C\3/C(=O)NC(=NCC4=CC=CS4)S3)N=C1
Procedure, shortened: as §1

[5] = compound: C1=CC2=NC=CN=C2C=C1/C=C/3\C(=O)NC(=O)S3
Procedure, shortened: as §1

[6] = compound: C1=CC=C(C=C1)C2=NC(=C(N2)C3=CC=NC=C3)C4=CC(=C(C=C4)Cl)O
Procedure, shortened: as §1

[7] = compound: C1=CC=C2C(=C1)C3=NNC4=CC=CC(=C43)C2=O
Procedure, shortened: as §1

[8] = compound: C1CCN(C1)C(=O)NC2=CC=CC(=C2)NC3=NC=C(C(=N3)NCCC4=CN=CN4)Br
Procedure, shortened: as §1

[9] = compound: C1CN(CCC1(CC2=CC=C(C=C2)Cl)N)C3=NC=NC4=C3C=CN4
Procedure, shortened: as §1

IRAK-1-4 Inhibitor I = compound: C1COCCN1CCN2C3=CC=CC=C3N=C2NC(=O)C4=CC(=CC=C4)[N+](=O)[O-] [IRAK-1-4 Inhibitor I]
Procedure, shortened: as §1

ibrutinib = compound: C=CC(=O)N1CCC[C@@H](n2nc(-c3ccc(Oc4ccccc4)cc3)c3c(N)ncnc32)C1 [ibrutinib]
Procedure, shortened: as §1

[10] = compound: CC(=O)c1cnc2ccc(-c3cc(Cl)c(O)c(Cl)c3)nc2c1N[C@H]1CC[C@H](CN(C)C)CC1
Procedure, shortened: as §1

ralimetinib = compound: CC(C)(C)Cn1c(N)nc2ccc(-c3[nH]c(C(C)(C)C)nc3-c3ccc(F)cc3)nc21 [ralimetinib]
Procedure, shortened: as §1

[11] = compound: CC(C)(O)CC(=O)NCCn1ccc2ncnc(Nc3ccc(Oc4cccc(C(F)(F)F)c4)c(Cl)c3)c21
Procedure, shortened: as §1

[12] = compound: CC(C)C1=C2N=C(C=C(N2N=C1)NCC3=CC=CC=C3)NCCCCCCN
Procedure, shortened: as §1

[13] = compound: CC(C)C[C@@H](C=O)NC(=O)[C@H](CC(C)C)NC(=O)[C@H](CC(C)C)NC(=O)OCc1ccccc1
Procedure, shortened: as §1

pinometostat = compound: CC(C)N(C[C@H]1O[C@@H](n2cnc3c(N)ncnc32)[C@H](O)[C@@H]1O)[C@H]1C[C@@H](CCc2nc3cc(C(C)(C)C)ccc3[nH]2)C1 [pinometostat]
Procedure, shortened: as §1

[14] = compound: CC1=C(C(CC(=O)N1)C2=CC=C(C=C2)C(F)(F)F)C(=O)NC3=C(C=C4C(=C3)C=NN4)F
Procedure, shortened: as §1

[15] = compound: CC1=C(C2=C(C=C1)C(=O)C3=CC=CC=C3N2CCCN)C
Procedure, shortened: as §1

Measured: log2 fold change

SACS (UniProt Q9NZJ4)
inactive: erlotinib 0.095 | [1] 0.069 | [2] -0.074 | [3] -0.172 | [4] -0.156 | [5] 0.245 | [6] 0.077 | [7] 0.043 | [8] 0.027 | [9] -0.185 | IRAK-1-4 Inhibitor I -0.006 | ibrutinib -0.124 | [10] 0.061 | ralimetinib -0.066 | [11] -0.037 | [12] -0.012 | [13] -0.069 | pinometostat -0.014 | [14] -0.027 | [15] 0.248

RUVBL1 (UniProt Q9Y265)
inactive: erlotinib -0.007 | [1] -0.013 | [2] 0.03 | [3] 0.013 | [4] -0.007 | [5] 0.039 | [6] -0.038 | [7] -0.005 | [8] 0.02 | [9] 0.02 | IRAK-1-4 Inhibitor I 0.031 | ibrutinib 0.025 | [10] 0.07 | ralimetinib -0.007 | [11] 0.035 | [12] 0.109 | [13] -0.005 | pinometostat -0.023 | [14] -0.02 | [15] -0.049

SEC13 isoform 3 (UniProt P55735)
inactive: erlotinib -0.028 | [1] 0.02 | [2] 0.061 | [3] -0.033 | [4] -0.014 | [5] 0.05 | [6] 0.013 | [7] -0.097 | [8] 0.003 | [9] -0.029 | IRAK-1-4 Inhibitor I -0.03 | ibrutinib -0.018 | [10] 0.007 | ralimetinib -0.033 | [11] 0.015 | [12] 0.005 | [13] -0.006 | pinometostat 0.013 | [14] 0.08 | [15] 0.011

SCFD1 (UniProt Q8WVM8)
inactive: erlotinib 0.046 | [1] 0.075 | [2] 0.055 | [3] -0.026 | [4] 0.064 | [5] 0.014 | [6] 0.045 | [7] 0.019 | [8] -0.022 | [9] -0.036 | IRAK-1-4 Inhibitor I -0.047 | ibrutinib -0.001 | [10] 0.008 | ralimetinib 0.05 | [11] -0.116 | [12] -0.045 | [13] 0.008 | pinometostat 0.01 | [14] -0.049 | [15] 0.037

SCIN (UniProt Q9Y6U3)
inactive: erlotinib 0.015 | [1] 0.056 | [2] 0.026 | [3] -0.052 | [4] 0.091 | [5] 0.042 | [6] 0.058 | [7] -0.073 | [8] -0.054 | [9] 0.063 | IRAK-1-4 Inhibitor I -0.053 | ibrutinib 0.026 | [10] 0.006 | ralimetinib 0.051 | [11] -0.061 | [12] -0.157 | [13] 0.036 | pinometostat 0.03 | [14] -0.11 | [15] -0.075

SDF4 (UniProt Q9BRK5)
inactive: erlotinib 0.013 | [1] -0.015 | [2] -0.019 | [3] -0.012 | [4] -0.027 | [5] 0.038 | [6] -0.043 | [7] 0.029 | [8] 0.03 | [9] 0.026 | IRAK-1-4 Inhibitor I 0.015 | ibrutinib 0.009 | [10] 0.052 | ralimetinib -0.084 | [11] -0.045 | [12] 0.03 | [13] 0.021 | pinometostat -0.003 | [14] -0.022 | [15] 0.009

SCO1 (UniProt O75880)
inactive: erlotinib 0.01 | [1] 0.179 | [2] -0.014 | [3] 0.054 | [4] -0.052 | [5] 0.065 | [6] -0.009 | [7] 0.059 | [8] 0.048 | [9] -0.011 | IRAK-1-4 Inhibitor I 0.078 | ibrutinib 0.008 | [10] 0 | ralimetinib 0.006 | [11] 0.023 | [12] -0.028 | [13] 0.011 | pinometostat -0.035 | [14] -0.002 | [15] 0.016

RSU1 (UniProt Q15404)
inactive: erlotinib 0.013 | [1] -0.017 | [2] 0.006 | [3] 0.007 | [4] 0.017 | [5] 0.024 | [6] -0.019 | [7] -0.005 | [8] 0.011 | [9] 0.014 | IRAK-1-4 Inhibitor I 0.047 | ibrutinib 0.002 | [10] -0.021 | ralimetinib -0.045 | [11] 0.006 | [12] 0.04 | [13] -0.042 | pinometostat -0.031 | [14] -0.014 | [15] 0.021

SBDS (UniProt Q9Y3A5)
inactive: erlotinib 0.047 | [1] 0.086 | [2] 0.036 | [3] -0.038 | [4] 0.053 | [5] 0.027 | [6] 0.033 | [7] 0.076 | [8] 0.029 | [9] -0.064 | IRAK-1-4 Inhibitor I -0.024 | ibrutinib -0.02 | [10] -0.019 | ralimetinib 0.032 | [11] -0.123 | [12] -0.086 | [13] -0.023 | pinometostat 0.003 | [14] -0.017 | [15] 0.037

SCRN2 (UniProt Q96FV2)
inactive: erlotinib 0.086 | [1] -0.014 | [2] 0.036 | [3] 0.091 | [4] -0.039 | [5] -0.02 | [6] -0.121 | [7] 0.101 | [8] -0.029 | [9] 0.001 | IRAK-1-4 Inhibitor I 0.04 | ibrutinib 0.011 | [10] 0.019 | ralimetinib 0.221 | [11] -0.064 | [12] -0.043 | [13] 0.009 | pinometostat -0.088 | [14] -0.034 | [15] -0.096

SAE1 (UniProt Q9UBE0)
inactive: erlotinib -0.047 | [1] 0.04 | [2] 0.095 | [3] 0.017 | [4] -0.015 | [5] 0.037 | [6] -0.014 | [7] -0.021 | [8] 0.003 | [9] -0.014 | IRAK-1-4 Inhibitor I 0.032 | ibrutinib -0.028 | [10] 0.015 | ralimetinib -0.065 | [11] -0.02 | [12] 0.015 | [13] -0.046 | pinometostat -0.045 | [14] 0.004 | [15] -0.014

RTN2 (UniProt O75298)
inactive: erlotinib -0.008 | [1] 0.068 | [2] -0.14 | [3] 0.052 | [4] 0.021 | [5] 0.033 | [6] 0.037 | [7] -0.009 | [8] -0.055 | [9] 0.021 | IRAK-1-4 Inhibitor I 0.004 | ibrutinib 0.001 | [10] -0.059 | ralimetinib -0.07 | [11] 0.008 | [12] -0.258 | [13] -0.004 | pinometostat -0.001 | [14] -0.035 | [15] 0.077

S100A11 (UniProt P31949)
inactive: erlotinib -0.021 | [1] -0.006 | [2] 0.216 | [3] 0.024 | [4] 0.105 | [5] 0.047 | [6] 0.087 | [7] 0.002 | [8] -0.031 | [9] 0.038 | IRAK-1-4 Inhibitor I 0.026 | ibrutinib 0 | [10] 0.018 | ralimetinib -0.04 | [11] 0 | [12] 0.13 | [13] -0.05 | pinometostat -0.034 | [14] -0.001 | [15] 0.152

Copied from above (2 entries):
SEC13 isoform 3 (UniProt P55735)
inactive: erlotinib -0.028 | [1] 0.02 | [2] 0.061 | [3] -0.033 | [4] -0.014 | [5] 0.05 | [6] 0.013 | [7] -0.097 | [8] 0.003 | [9] -0.029 | IRAK-1-4 Inhibitor I -0.03 | ibrutinib -0.018 | [10] 0.007 | ralimetinib -0.033 | [11] 0.015 | [12] 0.005 | [13] -0.006 | pinometostat 0.013 | [14] 0.08 | [15] 0.011

SCFD1 (UniProt Q8WVM8)
inactive: erlotinib 0.046 | [1] 0.075 | [2] 0.055 | [3] -0.026 | [4] 0.064 | [5] 0.014 | [6] 0.045 | [7] 0.019 | [8] -0.022 | [9] -0.036 | IRAK-1-4 Inhibitor I -0.047 | ibrutinib -0.001 | [10] 0.008 | ralimetinib 0.05 | [11] -0.116 | [12] -0.045 | [13] 0.008 | pinometostat 0.01 | [14] -0.049 | [15] 0.037

Continuation:

RTF1 (UniProt Q92541)
inactive: erlotinib -0.053 | [1] 0.058 | [2] 0.066 | [3] 0.013 | [4] 0.041 | [5] 0.001 | [6] -0.038 | [7] 0.014 | [8] -0.015 | [9] 0.02 | IRAK-1-4 Inhibitor I 0.003 | ibrutinib -0.003 | [10] -0.09 | ralimetinib -0.054 | [11] -0.066 | [12] -0.028 | [13] 0.016 | pinometostat -0.034 | [14] -0.005 | [15] 0.029

SBF1 isoform 4 (UniProt O95248)
inactive: erlotinib -0.064 | [1] 0.05 | [2] -0.127 | [3] 0.057 | [4] -0.005 | [5] -0.206 | [6] -0.061 | [7] -0.056 | [8] -0.258 | [9] -0.087 | IRAK-1-4 Inhibitor I -0.073 | ibrutinib 0.153 | [10] -0.111 | ralimetinib 0.069 | [11] 0.098 | [12] -0.049 | [13] 0.135 | pinometostat -0.017 | [14] 0.211 | [15] 0.14

SCFD2 (UniProt Q8WU76)
inactive: erlotinib 0.121 | [1] 0.034 | [2] -0.221 | [3] -0.033 | [4] 0.013 | [5] 0.016 | [6] 0.094 | [7] -0.048 | [8] -0.011 | [9] -0.042 | IRAK-1-4 Inhibitor I -0.076 | ibrutinib -0.098 | [10] 0 | ralimetinib 0.138 | [11] -0.009 | [12] -0.025 | [13] 0.087 | pinometostat 0.16 | [14] 0.003 | [15] 0.032
